“Also recorded” adds a separate entry of the source. For at least one compound, name, drawing or mass did not settle the structure.
Assays:
[1] = system: human CD8+ T-cells; assay: Artificial APC (pMHC/anti-CD28 bead) priming and expansion of isolated human CD8+ T-cells, MLA-001 tetramer readout; format: cell-based; details: three stimulation cycles, high and low density pMHC, absence of natural antigen presenting cells
[2] = system: OVA-001 specific CD8+ T-cells; format: in vivo, C57BL/6 mice; details: continuous treatment; both sorafenib dosages; high-dose (80 mg/kg bw) sunitinib
[3] = system: OVA-001 specific CD8+ T-cells; format: in vivo, C57BL/6 mice
[4] = system: CD4+ CD25+ Tregs, T cells, B cells, splenocytes; assay: Immune cell populations in spleen and PBMCs of TKI-treated mice; format: in vivo, C57BL/6 mice
[5] = system: C57BL/6 T cells; assay: Mouse mixed lymphocyte reaction (CFSE-labeled C57BL/6 spleen cells vs irradiated BALB/c splenocytes); format: cell-based
Protocol: CFSE-labeled spleen cells from C57BL/6 (H2-b) mice were co-cultured with irradiated splenocytes from BALB/c (H2-d) mice, resulting in the strong allogenic response and proliferation of the C57BL/6 T cells against H2-d MHC molecules. The proliferation of the T cells results in a diminished CFSE staining of the divided cells. Percentage of divided cells and their number of divisions can be analyzed by flow cytometry.
Spleen cells were prepared from 1 C57BL/6 mouse and 1 BALB/c mouse (Harlan Winkelmann GmbH, Borchen, Germany). BALB/c cells were irradiated with 33 Gy. Effectors (C57BL/6) were adjusted to 20 Mio cells/ml. A 2 mM 5(6)-Carboxyfluorescindiacetate-N-succinimidylester (CFSE, Fluka, Buchs, Switzerland) solution in PBS was freshly prepared from a 10 mM DMSO stock solution. The cell suspension was mixed 1:1 with the CFSE solution. After incubation at 37° C. for 4 min, reaction was stopped by addition of fetal calf serum (Biochrom, Berlin, Germany), and free CFSE was washed out. 2×10^5 stimulator cells (BALB/c) were plated into cavities of a 96-well round-bottom plate. 1×10^5 or 2×10^5 CFSE-labeled effector cells and tyrosine kinase inhibitors at two different concentrations were added. Appropriate positive and negative controls were included. All cultures were in 200 μl T-cell medium with 0.1% (v/v) DMSO for 5 or 7 days without further medium change. Thereafter, cells were stained with fluorescently labelled anti-CD4-PerCP and anti-CD8-FITC antibodies (both BD Biosciences, Heidelberg, Germany) and analyzed by flow cytometry.
The experiment described above was repeated with the exception that a 96-well flat-bottom plate was used for mixed lymphocyte reactions (MLRs), a syngenic control with irradiated C57BL/6 cells was included, more concentrations of inhibitors were assessed, and all groups were analyzed in triplicates.
During cultivation, half of the medium was replaced with fresh appropriate medium supplemented with final concentrations of tyrosine kinase inhibitors every day, and proliferation was analyzed at day 7 only. Additionally cells were stained for H2-Kb to clearly identify effector cells in a further dimension.

## CCN(CC)CCNC(=O)c1c(C)[nH]c(/C=C2\C(=O)Nc3ccc(F)cc32)c1C [Sunitinib]
[1]
  Priming and expansion of MLA-001 specific CD8+ T-cells (% tetramer+ among CD8+ lymphocytes, total number per well): no concentration-dependent influence; also recorded: not altered
[2]
  Immune response towards OVA-001 compared with vehicle treated controls (in words): reduced immune response
[3]; mouse, in vivo
  Reversibility of the immunosuppressive influence after discontinuation of treatment: rapidly reversed
[3]; treatment stopped 48 h before first immunization, 80 mg/kg bw sunitinib, both sorafenib dosages, differences not significant
  Numbers of OVA-001-specific T-cells: Reduced numbers
[4]; 4 weeks treatment
  Number of CD4+ CD25+ Tregs among total CD4+ cells in PBMCs: reduced numbers; also recorded: significantly reduced number
[4]; high dose sunitinib
  Numbers of T-cells and B cells among splenocytes: elevated numbers
[4]; two weeks after discontinuation of treatment
  Recovery of Treg numbers: recovered to normal levels
[5]
  CD4+ T-cell proliferation in response to allogenic stimuli (summary): not altered or even increased
  CD8+ T-cell proliferation in response to allogenic stimuli (summary): not affected; also recorded: not altered or even increased
[5]; first experiment, both sunitinib concentrations
  CD8 proliferation: slightly increased
[5]; second experiment, day 7
  CD8+ proliferation: slight increase

Source: patent US9308244B2, “Combination therapy using active immunotherapy” (immatics Biotechnologies GmbH, priority 2007, dated 2016)
